These results are taken from paper PMC10632425.

The target of experiment [1] is T1, BmrC subunit of BmrCD*-QQ (D500Q) (Bacillus subtilis) (UniProt O07550).
T1 sequence: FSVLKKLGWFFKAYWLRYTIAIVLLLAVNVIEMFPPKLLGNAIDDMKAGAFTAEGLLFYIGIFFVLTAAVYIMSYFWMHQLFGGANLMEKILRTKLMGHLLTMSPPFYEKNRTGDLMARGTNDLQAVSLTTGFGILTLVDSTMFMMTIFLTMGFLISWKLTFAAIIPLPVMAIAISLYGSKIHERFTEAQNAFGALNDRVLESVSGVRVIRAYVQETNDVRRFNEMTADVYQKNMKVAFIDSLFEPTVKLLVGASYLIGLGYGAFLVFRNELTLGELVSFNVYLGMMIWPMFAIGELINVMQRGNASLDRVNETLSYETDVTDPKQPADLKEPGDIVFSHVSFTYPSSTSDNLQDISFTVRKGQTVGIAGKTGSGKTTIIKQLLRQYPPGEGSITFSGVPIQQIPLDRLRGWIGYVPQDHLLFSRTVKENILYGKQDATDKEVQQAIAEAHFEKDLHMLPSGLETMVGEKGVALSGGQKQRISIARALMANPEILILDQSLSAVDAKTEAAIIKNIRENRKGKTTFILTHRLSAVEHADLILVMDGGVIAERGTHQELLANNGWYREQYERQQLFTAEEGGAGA
As to the kind of experiment: cryo-EM structure; BmrCD heterodimer (~3 mg/ml) in lipid nanodiscs (MSP1D1 or MSP1D1E3; PC/PA or PC/E. coli polar lipids); BmrCD*-QQ with 10 mM ATP, 5 mM MgCl2, with or without 1.2 mM Hoechst-33342; wild type with 10 mM ATP, 4 mM MgSO4, 4 mM vanadate at 37 °C; both purified.

Experiment [2] concerns the target T2, BmrC subunit of wild type BmrCD (Bacillus subtilis) (UniProt O07550).
T2 sequence: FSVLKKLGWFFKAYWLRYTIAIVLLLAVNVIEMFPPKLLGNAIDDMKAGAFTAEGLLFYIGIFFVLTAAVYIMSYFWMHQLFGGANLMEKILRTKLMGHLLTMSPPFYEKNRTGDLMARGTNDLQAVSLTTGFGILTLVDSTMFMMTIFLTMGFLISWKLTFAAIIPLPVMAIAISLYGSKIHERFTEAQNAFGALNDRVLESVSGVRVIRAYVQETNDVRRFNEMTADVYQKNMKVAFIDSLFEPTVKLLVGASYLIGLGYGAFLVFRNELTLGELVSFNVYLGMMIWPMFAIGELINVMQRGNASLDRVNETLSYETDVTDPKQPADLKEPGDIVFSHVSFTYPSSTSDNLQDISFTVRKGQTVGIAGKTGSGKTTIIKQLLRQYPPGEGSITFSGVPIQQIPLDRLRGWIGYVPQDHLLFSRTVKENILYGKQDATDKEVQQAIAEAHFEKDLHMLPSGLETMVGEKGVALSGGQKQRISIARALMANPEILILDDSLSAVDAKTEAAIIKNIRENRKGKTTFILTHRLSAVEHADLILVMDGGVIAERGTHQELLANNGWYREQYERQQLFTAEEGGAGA
The experiment is described as above.

No constants are given. Whether binding was seen depends on the method and setting. Some binding calls cover weakened binding; strength is not graded here.

B1: BmrD subunit of BmrCD*-QQ (cysteine-less, E592Q) (protein, UniProt O07549 1-673)
chain: MKIGKTLWRYALLYRKLLITAVLLLTVAVGAELTGPFIGKKMIDDHILGIEKTWYEAAEKDKNAVQFHGVSYVREDRLQEPVSKAKEAHIYQVGMAFYFVDQAVSFDGNRTVSDGKLTITNGDKSRAYAAEKLTKQELFQFYQPEIKGMVLLIALYGGLLVFSVFFQYGQHYLLQMSANRIIQKMRQDVFSHIQKMPIRYFDNLPAGKVVARITNDTEAIRDLYVTVLSTFVTSGIYMFGIFTALFLLDVKLAFVALAIVPIIWLWSVIYRRYASYYNQKIRSINSDINAKMNESIQGMTIIQAFRHQKETMREFEELNESHFYFQNRMLNLNSLMSHNLVNVIRNLAFVALIWHFGGASLNAAGIVSIGVLYAFVDYLNRLFQPITGIVNQFSKLELARVSAGRVFELLEEKNTEEAGEPAKERALGRVEFRDVSFAYQEGEEVLKHISFTAQKGETVALVGHTGSGKSSILNLLFRFYDAQKGDVLIDGKSIYNMSRQELRSHMGIVLQDPYLFSGTIGSNVSLDDERMTEEEIKNALRQVGAEPLLKKLPKGINEPVIEKGSTLSSGERQLISFARALAFDPAILILDQATAHIDTETEAVIQKALDVVKQGRTTFVIAHRLSTIRNADQILVLDKGEIVERGNHEELMALEGQYYQMYELQKGQKHSIA
On to B1, for which, in experiment [1], the binding result was “binds”.

B2: BmrD subunit of wild type BmrCD (protein, UniProt O07549 1-673)
chain: MKIGKTLWRYALLYRKLLITAVLLLTVAVGAELTGPFIGKKMIDDHILGIEKTWYEAAEKDKNAVQFHGVSYVREDRLQEPVSKAKEAHIYQVGMAFYFVDQAVSFDGNRTVSDGKLTITNGDKSRAYAAEKLTKQELFQFYQPEIKGMVLLICLYGGLLVFSVFFQYGQHYLLQMSANRIIQKMRQDVFSHIQKMPIRYFDNLPAGKVVARITNDTEAIRDLYVTVLSTFVTSGIYMFGIFTALFLLDVKLAFVCLAIVPIIWLWSVIYRRYASYYNQKIRSINSDINAKMNESIQGMTIIQAFRHQKETMREFEELNESHFYFQNRMLNLNSLMSHNLVNVIRNLAFVCLIWHFGGASLNAAGIVSIGVLYAFVDYLNRLFQPITGIVNQFSKLELARVSAGRVFELLEEKNTEEAGEPAKERALGRVEFRDVSFAYQEGEEVLKHISFTAQKGETVALVGHTGSGKSSILNLLFRFYDAQKGDVLIDGKSIYNMSRQELRSHMGIVLQDPYLFSGTIGSNVSLDDERMTEEEIKNALRQVGAEPLLKKLPKGINEPVIEKGSTLSSGERQLISFARALAFDPAILILDEATAHIDTETEAVIQKALDVVKQGRTTFVIAHRLSTIRNADQILVLDKGEIVERGNHEELMALEGQYYQMYELQKGQKHSIA
As to B2, the binding result in experiment [2] is on record as “binds”.
